Source: patent US20040157214A1

Legend:
Test in all cases: phage ELISA, 100 ug/ml antigen
[1] = target: glyceraldehyde-3-phosphate dehydrogenase
[2] = target: cytochrome C
[3] = target: trypsin inhibitor
[4] = target: thyroglobulin
[5] = target: keyhole limpet haemocyanin (keyhole limpet)

- binding [1]: no binding
- binding [2]: no binding
- binding [3]: no binding
- binding [4]: no binding
- binding [5]: no binding
B1: Lysozyme binder VH14.1 / VL14.1 (scFv, V domains shown)
VH: QVQLQESGPGLVKPSETLSLVCTVSGGSLSFSYWGWIRQPPGKGLEWIGYISHRGTDYNSSLQSRVTISADTSKNQFSLKLSSVTAADTAVYYCARSFSNSFFFGYWGQGT
VL: SSELTQDPAVSVAFGQTVRITCQGDSLRSSYASWYQQKPGQAPLLVIYGENSRPSGIPDRFSGSSSGNTASLTITGAQAEDEADYYCNSRDSRGTHLEVFGG

- binding [1]: no binding
- binding [2]: no binding
- binding [3]: no binding
- binding [4]: no binding
- binding [5]: no binding
B2: Lysozyme binder VH13.1 / VL13.1 (scFv, V domains shown)
VH: QVQLVQSGAEVKKPGQSLMISCQGSGYSFSNYWIGWVRQMPGKGLEWMGIIYPGDSDTRYSPSFQGQVTISADKSISTAYLHWSSLKASDTALYYCARLVGGTPAYWGQGT
VL: HVILTQPASVSGSPGQSITISCTGSSRDVGGYNYVSWYQHHPGKAPKLLISEVTNRPSGVSNRFSGSKSGNTASLTISGLQAEDEADYFCASYTSSKTYVFGG

No constants are given. Whether binding was seen depends on the method and setting. Each block holds one binder with its values, some of them ahead of it.
